Some of the results follow.
Legend:
Assay in all cases: log2 fold change, soluble protein after heating vs DMSO (PISA); higher = thermal stabilisation; K562 cells, 10 uM, 30 min; active = over 0.2 and 3.5 SD of the protein, either way, in both replicates (recomputed)
[1] = compound: C1=CC=C(C=C1)[C@H](COC2=CC3=C(C=C2)NC(=O)N3)NC(=O)C4=CC=CN(C4=O)CC5=CC(=C(C=C5)F)F
Summary of the method: (§1)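 Values are thermal stability changes relative to control samples and are taken from duplicates. They are stated as log2 fold changes. Before quantification by TMTpro 16plex LC-MS/MS with equalised channel sums, K562 cells at 2×10^6 cells/mL were treated with 10 μM compound for 30 min, heated in aliquots for 3 min across 48°C-58°C, pooled, extracted in PBS with 0.5% NP-40 at 4°C, and centrifuged at 21,000xg for 90 min to give the soluble supernatant.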

The chains behind the UniProt entries cited, without tags or fusion partners. Where a name states a change or a piece, a line headed by the entry shows the natural chain unless it says otherwise.
UniProt O14744, whole entry, looked up: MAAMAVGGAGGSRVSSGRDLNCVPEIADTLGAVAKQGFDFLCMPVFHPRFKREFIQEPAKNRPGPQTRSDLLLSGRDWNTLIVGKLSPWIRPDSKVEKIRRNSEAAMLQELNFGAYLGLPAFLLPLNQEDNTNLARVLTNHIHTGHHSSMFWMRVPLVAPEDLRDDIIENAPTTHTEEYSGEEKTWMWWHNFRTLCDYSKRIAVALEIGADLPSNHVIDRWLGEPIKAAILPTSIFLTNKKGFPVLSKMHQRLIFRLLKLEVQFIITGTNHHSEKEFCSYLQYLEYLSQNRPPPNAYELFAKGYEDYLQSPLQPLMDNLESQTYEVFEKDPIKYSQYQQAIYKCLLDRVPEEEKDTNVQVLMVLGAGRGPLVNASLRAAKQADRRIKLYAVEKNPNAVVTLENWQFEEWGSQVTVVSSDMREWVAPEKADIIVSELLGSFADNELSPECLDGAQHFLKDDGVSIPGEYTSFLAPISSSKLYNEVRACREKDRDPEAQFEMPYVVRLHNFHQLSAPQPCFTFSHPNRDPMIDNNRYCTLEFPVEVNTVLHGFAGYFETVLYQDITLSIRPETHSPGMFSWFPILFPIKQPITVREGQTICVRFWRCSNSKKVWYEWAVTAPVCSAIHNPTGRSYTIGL
UniProt P30044: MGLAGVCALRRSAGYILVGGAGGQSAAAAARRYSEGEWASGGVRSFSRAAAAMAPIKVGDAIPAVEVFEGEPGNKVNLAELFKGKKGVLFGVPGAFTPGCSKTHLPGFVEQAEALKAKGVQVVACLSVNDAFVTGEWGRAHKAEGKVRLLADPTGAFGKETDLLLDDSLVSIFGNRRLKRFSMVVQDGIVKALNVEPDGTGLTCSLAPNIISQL
UniProt Q9HCU5: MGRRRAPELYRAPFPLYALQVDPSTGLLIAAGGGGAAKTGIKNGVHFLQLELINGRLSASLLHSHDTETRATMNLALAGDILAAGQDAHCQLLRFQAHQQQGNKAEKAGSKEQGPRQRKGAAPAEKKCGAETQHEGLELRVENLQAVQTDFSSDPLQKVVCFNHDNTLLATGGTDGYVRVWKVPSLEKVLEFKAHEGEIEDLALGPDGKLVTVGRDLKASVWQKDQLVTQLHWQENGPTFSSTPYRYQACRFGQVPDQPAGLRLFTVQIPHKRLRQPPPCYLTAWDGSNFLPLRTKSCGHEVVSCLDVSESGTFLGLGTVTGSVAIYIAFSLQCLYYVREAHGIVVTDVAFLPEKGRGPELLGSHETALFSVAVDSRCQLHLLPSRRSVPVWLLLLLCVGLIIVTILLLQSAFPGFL
UniProt P05771, whole entry, looked up: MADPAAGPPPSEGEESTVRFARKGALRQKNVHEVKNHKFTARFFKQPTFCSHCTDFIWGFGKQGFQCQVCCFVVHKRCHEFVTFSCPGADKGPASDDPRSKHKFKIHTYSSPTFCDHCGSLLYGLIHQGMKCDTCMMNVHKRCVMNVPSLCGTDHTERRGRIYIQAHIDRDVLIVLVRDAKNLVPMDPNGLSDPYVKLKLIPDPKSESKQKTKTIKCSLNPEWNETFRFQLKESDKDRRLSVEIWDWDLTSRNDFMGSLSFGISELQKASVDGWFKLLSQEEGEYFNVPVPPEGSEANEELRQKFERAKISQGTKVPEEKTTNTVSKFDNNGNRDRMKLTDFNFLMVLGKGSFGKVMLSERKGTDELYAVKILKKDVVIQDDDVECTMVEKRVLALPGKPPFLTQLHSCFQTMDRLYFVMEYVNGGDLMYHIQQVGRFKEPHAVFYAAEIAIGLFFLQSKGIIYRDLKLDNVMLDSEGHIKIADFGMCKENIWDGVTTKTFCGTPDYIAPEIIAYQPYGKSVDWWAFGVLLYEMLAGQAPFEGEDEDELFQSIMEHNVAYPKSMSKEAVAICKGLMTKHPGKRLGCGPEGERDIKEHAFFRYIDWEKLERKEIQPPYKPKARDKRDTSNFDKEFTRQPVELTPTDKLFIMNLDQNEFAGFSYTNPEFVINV
UniProt Q14558: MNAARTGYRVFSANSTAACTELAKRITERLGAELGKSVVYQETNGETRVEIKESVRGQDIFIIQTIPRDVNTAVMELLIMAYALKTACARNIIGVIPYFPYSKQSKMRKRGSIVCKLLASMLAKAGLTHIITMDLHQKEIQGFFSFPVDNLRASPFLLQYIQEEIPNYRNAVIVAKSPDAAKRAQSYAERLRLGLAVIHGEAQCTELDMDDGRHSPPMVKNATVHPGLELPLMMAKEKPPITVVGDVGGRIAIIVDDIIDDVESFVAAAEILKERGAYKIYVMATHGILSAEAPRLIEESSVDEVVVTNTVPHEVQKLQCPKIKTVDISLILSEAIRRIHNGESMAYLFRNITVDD
UniProt Q9UNN8: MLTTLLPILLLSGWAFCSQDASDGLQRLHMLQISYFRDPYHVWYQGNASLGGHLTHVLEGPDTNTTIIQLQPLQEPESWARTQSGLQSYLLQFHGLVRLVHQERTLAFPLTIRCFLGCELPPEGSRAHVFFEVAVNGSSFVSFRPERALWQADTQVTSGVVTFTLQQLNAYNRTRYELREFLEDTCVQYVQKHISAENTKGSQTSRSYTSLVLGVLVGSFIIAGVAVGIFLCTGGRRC
UniProt P36873, whole entry, looked up: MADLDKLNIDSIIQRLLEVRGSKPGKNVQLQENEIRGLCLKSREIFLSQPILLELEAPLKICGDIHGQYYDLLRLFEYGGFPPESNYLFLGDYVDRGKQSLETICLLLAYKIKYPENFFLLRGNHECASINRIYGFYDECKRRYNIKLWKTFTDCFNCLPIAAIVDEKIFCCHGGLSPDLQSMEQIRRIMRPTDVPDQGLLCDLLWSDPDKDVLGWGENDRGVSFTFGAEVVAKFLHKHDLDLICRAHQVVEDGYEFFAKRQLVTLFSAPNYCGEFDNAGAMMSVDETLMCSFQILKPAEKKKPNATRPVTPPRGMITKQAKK
UniProt P07478, whole entry, looked up: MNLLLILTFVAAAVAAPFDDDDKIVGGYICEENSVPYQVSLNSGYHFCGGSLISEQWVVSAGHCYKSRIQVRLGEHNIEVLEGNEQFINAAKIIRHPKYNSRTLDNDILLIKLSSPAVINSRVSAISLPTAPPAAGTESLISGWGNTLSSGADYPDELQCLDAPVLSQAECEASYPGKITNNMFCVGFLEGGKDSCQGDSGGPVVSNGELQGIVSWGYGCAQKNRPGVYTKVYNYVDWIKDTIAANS
UniProt P62136, whole entry, looked up: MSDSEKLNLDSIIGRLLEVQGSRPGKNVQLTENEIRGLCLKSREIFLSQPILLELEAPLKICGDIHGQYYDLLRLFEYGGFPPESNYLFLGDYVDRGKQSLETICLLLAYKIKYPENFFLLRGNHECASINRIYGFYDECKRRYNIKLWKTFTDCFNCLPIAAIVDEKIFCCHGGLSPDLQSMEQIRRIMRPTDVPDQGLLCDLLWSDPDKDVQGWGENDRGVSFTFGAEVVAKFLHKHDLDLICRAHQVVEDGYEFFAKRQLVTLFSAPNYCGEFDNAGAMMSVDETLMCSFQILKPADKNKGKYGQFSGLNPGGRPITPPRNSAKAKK
UniProt P41743, whole entry, looked up: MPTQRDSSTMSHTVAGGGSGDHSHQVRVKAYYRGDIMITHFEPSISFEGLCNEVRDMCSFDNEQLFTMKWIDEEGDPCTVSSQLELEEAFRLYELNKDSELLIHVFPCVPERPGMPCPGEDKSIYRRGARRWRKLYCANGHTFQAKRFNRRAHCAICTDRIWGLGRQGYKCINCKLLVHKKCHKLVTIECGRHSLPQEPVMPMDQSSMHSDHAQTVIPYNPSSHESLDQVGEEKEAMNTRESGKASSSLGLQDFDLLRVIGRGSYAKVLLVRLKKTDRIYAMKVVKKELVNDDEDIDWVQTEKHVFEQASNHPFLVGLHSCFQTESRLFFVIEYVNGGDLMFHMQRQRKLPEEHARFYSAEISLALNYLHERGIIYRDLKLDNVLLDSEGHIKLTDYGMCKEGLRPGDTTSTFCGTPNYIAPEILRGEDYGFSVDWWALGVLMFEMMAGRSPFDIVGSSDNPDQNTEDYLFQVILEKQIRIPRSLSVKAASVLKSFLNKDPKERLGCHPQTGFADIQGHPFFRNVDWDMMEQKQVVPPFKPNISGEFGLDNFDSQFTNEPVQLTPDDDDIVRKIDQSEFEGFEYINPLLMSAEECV
UniProt O43395: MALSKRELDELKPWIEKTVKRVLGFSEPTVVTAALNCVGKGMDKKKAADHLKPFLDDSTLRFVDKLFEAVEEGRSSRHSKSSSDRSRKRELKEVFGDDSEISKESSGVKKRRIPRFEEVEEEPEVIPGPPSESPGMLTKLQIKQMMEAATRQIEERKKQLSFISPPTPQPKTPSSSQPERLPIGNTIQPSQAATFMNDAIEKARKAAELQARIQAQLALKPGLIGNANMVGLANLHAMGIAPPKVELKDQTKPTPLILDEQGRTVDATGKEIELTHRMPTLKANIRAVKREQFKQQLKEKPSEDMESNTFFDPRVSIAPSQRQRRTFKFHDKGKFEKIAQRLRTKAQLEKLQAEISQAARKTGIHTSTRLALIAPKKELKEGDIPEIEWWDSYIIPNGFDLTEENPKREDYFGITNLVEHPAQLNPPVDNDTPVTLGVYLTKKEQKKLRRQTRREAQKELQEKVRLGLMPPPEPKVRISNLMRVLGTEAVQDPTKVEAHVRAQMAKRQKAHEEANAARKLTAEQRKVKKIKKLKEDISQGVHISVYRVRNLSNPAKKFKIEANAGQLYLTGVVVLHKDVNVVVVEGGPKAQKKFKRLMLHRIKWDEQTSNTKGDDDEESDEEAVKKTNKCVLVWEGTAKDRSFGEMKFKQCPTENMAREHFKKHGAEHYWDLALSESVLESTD

[2] = compound: CC1=C(SC2=C1C(=N[C@H](C3=NN=C(N32)C)CC(=O)N)C4=CC=C(C=C4)Cl)C
Summary of the method: as §1

[3] = compound: CC1=C2C(=CC=C1)N=C(N(C2=O)C3=CC=CC=C3C)CN4C=NC5=C(N=CN=C54)N
Summary of the method: as §1

[4] = compound: Cc1sc2c(c1C)C(c1ccc(Cl)cc1)=N[C@@H](CC(=O)OC(C)(C)C)c1nnc(C)n1-2
Summary of the method: as §1

[5] = compound: c1ccc([C@@H]2C[C@H]2NC2CCNCC2)cc1
Summary of the method: as §1

Measured: log2 fold change

PRMT5 (UniProt O14744)
inactive: [1] -0.031 | [2] 0.022 | [3] 0.021 | [4] 0.004 | [5] -0.043

PRKD2 (UniProt M0R346)
inactive: [1] 0.081

PRDX5 (UniProt P30044)
inactive: [1] 0.03 | [2] 0.039 | [3] 0.042 | [4] -0.015 | [5] 0.012

PRKACB isoform 2 (UniProt P22694)
inactive: [1] -0.06 | [2] 0.021 | [3] 0.032 | [4] -0.038 | [5] 0.003

PREB (UniProt Q9HCU5)
inactive: [1] 0.013 | [2] 0.036 | [3] 0.053 | [4] -0.036 | [5] 0.054

Quoted from the listing (4 entries):
PRKD2 (UniProt M0R346)
inactive: [1] 0.081

PRDX5 (UniProt P30044)
inactive: [1] 0.03 | [2] 0.039 | [3] 0.042 | [4] -0.015 | [5] 0.012

PRKACB isoform 2 (UniProt P22694)
inactive: [1] -0.06 | [2] 0.021 | [3] 0.032 | [4] -0.038 | [5] 0.003

PREB (UniProt Q9HCU5)
inactive: [1] 0.013 | [2] 0.036 | [3] 0.053 | [4] -0.036 | [5] 0.054

Next part:

PRKCB isoform 2 (UniProt P05771)
inactive: [1] -0.034 | [2] 0.028 | [3] 0.053 | [4] 0.027 | [5] -0.008

PRPSAP1 isoform 2 (UniProt Q14558)
inactive: [1] 0.023 | [2] 0 | [3] -0.099 | [4] 0.027 | [5] 0.016

PROCR (UniProt Q9UNN8)
inactive: [1] 0.056 | [2] 0.07 | [3] -0.026 | [4] -0.055 | [5] 0.052

PPP1CC isoform 2 (UniProt P36873)
inactive: [1] -0.046 | [2] -0.025 | [3] 0.028 | [4] -0.031 | [5] 0.012

PRSS2 (UniProt P07478)
inactive: [1] 0.023 | [2] -0.033 | [3] 0.07 | [4] 0.044 | [5] 0.04

PPP1CA (UniProt P62136)
inactive: [1] 0.003 | [2] 0.022 | [3] 0.025 | [4] 0.016 | [5] 0.015

PRKCI (UniProt P41743)
inactive: [1] -0.049 | [2] 0.074 | [3] 0.134 | [4] 0.006 | [5] -0.07

PRPF3 (UniProt O43395)
inactive: [1] -0.09 | [2] -0.208 | [3] 0.08 | [4] -0.017 | [5] 0.115

Source: the supplement of paper PMC10849652
